The name of at least one read-out is uncertain. Non-standard residues stand in square brackets, D forms with d. *: point of attachment. ACC = NC(=O)Cc1cc(=O)oc2cc(N*)ccc12; Igl = N[C@H](C(=O)O)C1Cc2ccccc2C1; Agp = N=C(N)NC[C@H](N)C(=O)O; β3hK = NCCCC[C@H](N)CC(=O)O; Dab = NCC[C@H](N)C(=O)O; Cbz = O=C(OCc1ccccc1)*
Experiments:
Type in all cases: biochemical
Conditions in all cases: mean ± s.d., n = 3
[1] = biological target: thrombin (Homo sapiens, UniProt P00734); assay: Kinetic parameters (kcat/KM) of fluorogenic substrates, thrombin
[2] = biological target: APC (Homo sapiens, UniProt P04070); assay: Kinetic parameters (kcat/KM) of fluorogenic substrates, APC
Experimental: The Kcat/KM parameters towards APC, thrombin and fXa were measured using the procedure described in Modrzycka et al. Chemical Science, 2022, 13, 6813-6829.

[3] = biological target: fXa (Homo sapiens, UniProt P00742); assay: Kinetic parameters (kcat/KM) of fluorogenic substrates, fXa

Row | Substance | kcat/KM thrombin [1] | kcat/KM APC [2] | kcat/KM fXa [3] | kcat/KM APC ([2]; listed as SMA17) | kcat/KM thrombin ([1]; listed as SMA5) | kcat/KM APC ([2]; listed as SMA5) | kcat/KM fXa ([3]; listed as SMA5)
1 | Ac-K[Agp][Igl]R-{ACC} [SMA 6, fluorogenic substrate for APC] | 180 ± 7 M⁻¹ s⁻¹ | 40,000 ± 1,600 M^−1s^−1 | 1,300 ± 90 M^−1s^−1 |  |  |  | 
2 | Ac-K[Dab](Cbz)KR-{ACC} [SMA 17] | 130 ± 8 M⁻¹ s⁻¹ | 10,000 ± 600^ M^−1s^−1 | 190 ± 6 M⁻¹ s⁻¹ | 10,000±600 M^−1s^−1 |  |  | 
3 | Ac-K[Dab](Cbz)[Igl]R-{ACC} [SMA 5] | 1,800 ± 80 M^−1s^−1 | 71,000 ± 2,000 M^−1s^−1 | 4,000 ± 150 M^−1s^−1 |  | 1,800±80 M^−1s^−1 | 71,000±2,000 M^−1s^−1 | 4,000±150 M^−1s^−1
4 | Ac-K[β3hK][Igl]R-{ACC} [SMA 26] | 60 ± 2 M⁻¹ s⁻¹ | 15,500 ± 300^ M^−1s^−1 | 380 ± 13 M⁻¹ s⁻¹ |  |  |  | 
